According to the supplement of paper PMC12819154, “High-throughput peptide-centric local stability assay extends protein–ligand identification to membrane proteins, tissues and bacteria” (Nature Structural & Molecular Biology, 2025):
The other results are listed elsewhere or left out. Most entries show no effect beyond the scatter of the controls.

By UniProt entry, the sequences of proteins in these tests, tags left out. Where a name states a change or a piece, a line headed by the entry shows the natural chain unless it says otherwise.
UniProt Q96SN8: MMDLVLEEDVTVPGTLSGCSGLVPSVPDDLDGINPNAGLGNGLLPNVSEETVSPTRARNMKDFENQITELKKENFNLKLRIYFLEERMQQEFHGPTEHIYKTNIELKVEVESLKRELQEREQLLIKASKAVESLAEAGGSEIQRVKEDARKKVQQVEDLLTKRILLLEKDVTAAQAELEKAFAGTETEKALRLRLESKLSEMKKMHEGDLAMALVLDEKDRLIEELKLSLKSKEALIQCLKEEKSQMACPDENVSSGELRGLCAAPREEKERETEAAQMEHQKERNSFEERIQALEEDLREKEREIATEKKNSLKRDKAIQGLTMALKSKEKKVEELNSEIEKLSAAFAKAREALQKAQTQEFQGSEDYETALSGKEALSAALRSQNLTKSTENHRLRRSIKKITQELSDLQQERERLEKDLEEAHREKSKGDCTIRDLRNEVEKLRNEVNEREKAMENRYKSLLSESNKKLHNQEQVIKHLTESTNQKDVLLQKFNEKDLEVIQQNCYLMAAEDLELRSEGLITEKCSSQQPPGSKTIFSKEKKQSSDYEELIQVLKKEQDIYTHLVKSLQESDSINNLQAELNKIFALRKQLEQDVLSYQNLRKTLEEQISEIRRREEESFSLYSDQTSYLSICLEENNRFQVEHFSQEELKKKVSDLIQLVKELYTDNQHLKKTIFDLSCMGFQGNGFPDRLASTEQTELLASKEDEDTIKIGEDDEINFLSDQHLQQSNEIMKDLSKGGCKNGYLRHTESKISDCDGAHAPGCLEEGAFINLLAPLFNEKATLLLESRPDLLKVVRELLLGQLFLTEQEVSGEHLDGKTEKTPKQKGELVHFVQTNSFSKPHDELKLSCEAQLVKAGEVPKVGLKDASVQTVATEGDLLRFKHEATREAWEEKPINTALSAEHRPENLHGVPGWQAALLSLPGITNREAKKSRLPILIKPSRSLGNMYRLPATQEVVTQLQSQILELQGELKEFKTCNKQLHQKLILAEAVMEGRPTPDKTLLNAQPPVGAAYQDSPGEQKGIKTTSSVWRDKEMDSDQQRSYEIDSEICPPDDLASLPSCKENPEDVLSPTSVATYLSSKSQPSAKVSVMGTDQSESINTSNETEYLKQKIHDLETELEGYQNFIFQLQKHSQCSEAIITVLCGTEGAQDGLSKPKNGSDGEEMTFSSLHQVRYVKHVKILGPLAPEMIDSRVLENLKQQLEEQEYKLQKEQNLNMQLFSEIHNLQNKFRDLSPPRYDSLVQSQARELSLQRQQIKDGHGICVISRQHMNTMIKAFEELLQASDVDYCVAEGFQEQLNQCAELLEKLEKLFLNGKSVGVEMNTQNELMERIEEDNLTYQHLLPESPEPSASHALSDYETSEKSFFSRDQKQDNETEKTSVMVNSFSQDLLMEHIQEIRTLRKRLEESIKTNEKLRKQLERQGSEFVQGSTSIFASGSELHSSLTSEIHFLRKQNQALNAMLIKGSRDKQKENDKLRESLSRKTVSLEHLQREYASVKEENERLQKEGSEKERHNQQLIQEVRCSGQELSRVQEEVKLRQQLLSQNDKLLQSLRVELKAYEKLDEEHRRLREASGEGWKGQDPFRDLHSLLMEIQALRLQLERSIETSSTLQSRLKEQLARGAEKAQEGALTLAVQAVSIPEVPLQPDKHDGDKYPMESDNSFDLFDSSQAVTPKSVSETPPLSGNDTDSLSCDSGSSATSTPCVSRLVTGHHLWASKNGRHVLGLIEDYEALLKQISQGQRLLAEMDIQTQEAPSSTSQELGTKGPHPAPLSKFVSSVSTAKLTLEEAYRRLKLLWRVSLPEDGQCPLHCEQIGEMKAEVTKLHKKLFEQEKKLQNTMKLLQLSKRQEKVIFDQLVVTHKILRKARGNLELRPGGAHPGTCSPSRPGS
UniProt Q99832: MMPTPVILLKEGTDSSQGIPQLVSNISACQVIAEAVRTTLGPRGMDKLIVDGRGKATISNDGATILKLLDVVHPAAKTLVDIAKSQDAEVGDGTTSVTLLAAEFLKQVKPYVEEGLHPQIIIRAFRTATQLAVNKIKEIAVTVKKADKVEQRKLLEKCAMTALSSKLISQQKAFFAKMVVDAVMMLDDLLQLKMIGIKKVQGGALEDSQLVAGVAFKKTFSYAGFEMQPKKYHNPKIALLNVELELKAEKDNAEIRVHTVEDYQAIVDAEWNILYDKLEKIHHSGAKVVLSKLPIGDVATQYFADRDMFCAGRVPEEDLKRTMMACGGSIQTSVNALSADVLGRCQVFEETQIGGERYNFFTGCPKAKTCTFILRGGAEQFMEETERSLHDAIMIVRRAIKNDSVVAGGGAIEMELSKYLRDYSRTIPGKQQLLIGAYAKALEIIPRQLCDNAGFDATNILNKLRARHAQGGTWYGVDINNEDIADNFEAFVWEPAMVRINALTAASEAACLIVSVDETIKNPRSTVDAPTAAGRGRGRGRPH
UniProt Q99459: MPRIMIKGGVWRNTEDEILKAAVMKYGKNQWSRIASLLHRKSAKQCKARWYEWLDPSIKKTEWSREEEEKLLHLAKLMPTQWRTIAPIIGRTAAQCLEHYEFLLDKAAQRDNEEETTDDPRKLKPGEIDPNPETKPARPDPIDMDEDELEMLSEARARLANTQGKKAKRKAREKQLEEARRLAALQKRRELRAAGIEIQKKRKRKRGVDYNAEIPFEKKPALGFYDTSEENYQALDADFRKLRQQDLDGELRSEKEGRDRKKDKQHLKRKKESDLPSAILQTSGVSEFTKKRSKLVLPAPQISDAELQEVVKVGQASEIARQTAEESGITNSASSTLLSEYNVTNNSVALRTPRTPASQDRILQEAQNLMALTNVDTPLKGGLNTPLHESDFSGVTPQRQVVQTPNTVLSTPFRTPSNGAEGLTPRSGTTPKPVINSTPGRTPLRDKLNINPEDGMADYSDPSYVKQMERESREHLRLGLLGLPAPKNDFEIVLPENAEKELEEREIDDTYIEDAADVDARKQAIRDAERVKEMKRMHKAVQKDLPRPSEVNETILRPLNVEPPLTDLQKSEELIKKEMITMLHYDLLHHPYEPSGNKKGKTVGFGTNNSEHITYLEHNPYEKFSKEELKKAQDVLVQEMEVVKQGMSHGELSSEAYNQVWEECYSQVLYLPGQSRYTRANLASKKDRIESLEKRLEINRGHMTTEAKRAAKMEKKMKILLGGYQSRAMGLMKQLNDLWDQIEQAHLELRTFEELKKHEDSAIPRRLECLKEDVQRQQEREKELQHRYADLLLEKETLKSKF
UniProt Q99714: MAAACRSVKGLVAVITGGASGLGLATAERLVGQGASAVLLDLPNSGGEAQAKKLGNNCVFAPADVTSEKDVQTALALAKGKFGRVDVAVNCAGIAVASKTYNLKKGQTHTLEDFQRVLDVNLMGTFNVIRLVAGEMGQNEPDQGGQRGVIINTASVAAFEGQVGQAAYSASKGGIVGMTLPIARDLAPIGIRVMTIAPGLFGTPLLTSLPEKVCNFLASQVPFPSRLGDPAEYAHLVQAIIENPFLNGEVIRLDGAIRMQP
UniProt Q9BT30: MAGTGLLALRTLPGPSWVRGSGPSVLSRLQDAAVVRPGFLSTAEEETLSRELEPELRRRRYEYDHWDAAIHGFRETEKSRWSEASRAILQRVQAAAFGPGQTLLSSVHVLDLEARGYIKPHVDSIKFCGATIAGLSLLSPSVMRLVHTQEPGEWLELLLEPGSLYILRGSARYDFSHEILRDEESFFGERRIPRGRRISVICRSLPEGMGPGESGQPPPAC
UniProt Q9BQE9, whole entry: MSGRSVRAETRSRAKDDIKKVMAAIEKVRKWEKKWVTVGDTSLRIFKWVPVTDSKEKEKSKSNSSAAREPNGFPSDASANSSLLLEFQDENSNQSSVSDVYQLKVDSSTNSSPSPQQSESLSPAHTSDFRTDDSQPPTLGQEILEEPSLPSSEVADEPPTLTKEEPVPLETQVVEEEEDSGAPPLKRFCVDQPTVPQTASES
UniProt Q9BQ04: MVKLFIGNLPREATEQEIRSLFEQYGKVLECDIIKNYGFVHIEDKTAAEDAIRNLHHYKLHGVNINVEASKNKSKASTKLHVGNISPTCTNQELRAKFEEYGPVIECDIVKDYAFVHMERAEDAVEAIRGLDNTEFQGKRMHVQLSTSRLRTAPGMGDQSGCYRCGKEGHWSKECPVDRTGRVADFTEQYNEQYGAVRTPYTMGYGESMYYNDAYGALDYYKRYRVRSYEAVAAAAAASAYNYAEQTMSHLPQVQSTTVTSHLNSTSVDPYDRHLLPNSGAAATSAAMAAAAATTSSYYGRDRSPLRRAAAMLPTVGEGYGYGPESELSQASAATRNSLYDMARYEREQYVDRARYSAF
UniProt Q9BU02: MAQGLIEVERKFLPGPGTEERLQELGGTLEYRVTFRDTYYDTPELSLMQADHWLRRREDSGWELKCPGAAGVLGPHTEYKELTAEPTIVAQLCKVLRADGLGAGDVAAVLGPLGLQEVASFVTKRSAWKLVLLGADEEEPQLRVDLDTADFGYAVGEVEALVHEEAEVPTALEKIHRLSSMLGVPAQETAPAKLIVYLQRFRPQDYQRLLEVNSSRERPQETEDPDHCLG
UniProt Q99442: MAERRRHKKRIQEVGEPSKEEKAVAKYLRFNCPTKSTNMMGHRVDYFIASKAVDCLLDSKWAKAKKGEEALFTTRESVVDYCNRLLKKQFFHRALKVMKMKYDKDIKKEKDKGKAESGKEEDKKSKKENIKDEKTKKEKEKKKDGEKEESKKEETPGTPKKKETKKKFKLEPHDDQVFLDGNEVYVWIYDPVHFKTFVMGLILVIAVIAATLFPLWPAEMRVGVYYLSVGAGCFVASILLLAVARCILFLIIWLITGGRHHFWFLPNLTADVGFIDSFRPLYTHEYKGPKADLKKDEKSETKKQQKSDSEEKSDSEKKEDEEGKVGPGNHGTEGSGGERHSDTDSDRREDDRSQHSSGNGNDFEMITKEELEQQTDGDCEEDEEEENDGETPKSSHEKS
UniProt Q99797: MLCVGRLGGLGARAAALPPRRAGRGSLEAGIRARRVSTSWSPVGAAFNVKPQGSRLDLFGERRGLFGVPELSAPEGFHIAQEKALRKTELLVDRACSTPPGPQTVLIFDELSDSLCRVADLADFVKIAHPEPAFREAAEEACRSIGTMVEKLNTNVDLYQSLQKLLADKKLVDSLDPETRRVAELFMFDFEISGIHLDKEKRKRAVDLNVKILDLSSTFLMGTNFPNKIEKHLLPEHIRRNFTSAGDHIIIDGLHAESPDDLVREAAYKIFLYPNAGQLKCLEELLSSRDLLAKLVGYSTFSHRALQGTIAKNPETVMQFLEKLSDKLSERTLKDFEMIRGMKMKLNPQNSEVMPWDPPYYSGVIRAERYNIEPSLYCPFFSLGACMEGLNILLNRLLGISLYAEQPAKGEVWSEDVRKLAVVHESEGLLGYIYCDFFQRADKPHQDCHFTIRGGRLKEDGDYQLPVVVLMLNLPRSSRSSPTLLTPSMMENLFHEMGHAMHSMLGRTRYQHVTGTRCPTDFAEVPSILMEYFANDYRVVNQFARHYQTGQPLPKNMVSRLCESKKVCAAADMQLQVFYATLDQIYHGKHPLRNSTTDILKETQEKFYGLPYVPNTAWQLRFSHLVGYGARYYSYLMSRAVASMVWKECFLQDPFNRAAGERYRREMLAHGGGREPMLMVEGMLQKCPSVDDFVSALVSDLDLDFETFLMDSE

The targets below were run with Cc1nc(Nc2ncc(C(=O)Nc3c(C)cccc3Cl)s2)cc(N2CCN(CCO)CC2)n1 [dasatinib] (assay: log2 fold change of tryptic peptide abundance, ligand vs vehicle (limited proteolysis) (log2 ratio); higher = more trypsin-susceptible (destabilized)). Conditions: ligand concentration: 5 uM; sample: K562 cleared lysate.

Row | Target | log2 fold change
1 | CDK5RAP2 (peptide sequence: MHEGDLAMALVLDEKDR, peptide start residue: 205) (UniProt Q96SN8) | 0.562
2 | CCT7 (peptide sequence: TIPGKQQLLIGAYAK, peptide start residue: 426) (UniProt Q99832) | 0.132
3 | CDC5L (peptide sequence: HEDSAIPR, peptide start residue: 758) (UniProt Q99459) | -0.431
4 | HSD17B10 (peptide sequence: FGRVDVAVNCAGIAVASK, peptide start residue: 82) (UniProt Q99714) | 0.225
5 | ALKBH7 (peptide sequence: TLPGPSWVR, peptide start residue: 11) (UniProt Q9BT30) | -0.53
6 | BCL7B (peptide sequence: WVTVGDTSLR, peptide start residue: 35) (UniProt Q9BQE9) | 0.0166
7 | RBM4B (peptide sequence: LHVGNISPTCTNQELR, peptide start residue: 80) (UniProt Q9BQ04) | -0.0101
8 | THTPA (peptide sequence: LQELGGTLEYR, peptide start residue: 22) (UniProt Q9BU02) | 0.114
9 | SEC62 (peptide sequence: KENIKDEK, peptide start residue: 127) (UniProt Q99442) | 0.566
10 | MIPEP (peptide sequence: EAAEEACR, peptide start residue: 136) (UniProt Q99797) | -0.496
